# Reference: PubChem BioAssay AID1508588 (Peter MacCallum Cancer Centre, 2020)
# Test: 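Genome-wide search for knock-downs that heighten vemurafenib action in melanoma cells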 (primary screen)
# Cell system: human WM266.4 melanoma cells (BRAF V600 mutant)
# Knock-down reagent: siRNA pool against human genes, 40 nM
# Duration: 96 h from transfection to read-out
# Treatment: vemurafenib 300 nM (about IC25), added 48 h after transfection, for 48 h; comparison arm got DMSO vehicle only
# Read-out: 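Ratios to non-targeting siRNA for cell gain, counted as DAPI nuclei after minus before drug and averaged over two replicates, and for absorbance-read medium lactate per cell; both binned into fold-change classes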
# Reading the numbers: cell gain with vemurafenib: higher = more cell gain than with non-targeting siRNA; lactate per cell with vemurafenib: higher = more lactate made per cell
# Call rule: 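a knock-down counts as enhancing when its fold-change classes with vehicle and with vemurafenib, taken together, show a stronger drug effect on cell gain or lactate per cell; exact class pairs not stated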
# Meaning of the calls: active = enhances vemurafenib effect; inactive = no enhancement seen
# The whole screen tested about 18,000 reagents; this is a random part of them. In the full data, 790 (4.4%) were called active. 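Calls rest on a combination of fold-change classes in drug and vehicle arms, not all shown here.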 The numbers tell different reagents against one gene apart.
gene,reagent,cell gain with vemurafenib,lactate per cell with vemurafenib,outcome
MYDGF,1,0.73,0.62,inactive
AP3S1,1,0.42,0.88,inactive
ISLR,1,0.55,1.25,inactive
IL32,1,1.18,0.8,inactive
PLEKHA7,1,0.22,1.6,inactive
PJVK,1,0.37,1.08,inactive
SERTAD4,1,0.28,1.31,inactive
DGCR2,1,0.64,0.78,inactive
CYP19A1,1,0.53,1.5,inactive
MAGEL2,1,0.76,1.39,inactive
ANKRD34A,1,1.07,0.46,inactive
RPUSD2,1,0.93,0.7,active
RBM38,1,1,1.54,inactive
ZSCAN9,1,1,0.38,inactive
ATP6V0A1,1,0.77,0.68,inactive
DNAAF10,1,1.16,0.56,inactive
PPME1,1,0.62,0.78,inactive
ARMCX3,1,0.5,1.07,inactive
CIB4,1,0.74,0.65,inactive
PPT1,1,1.15,0.6,inactive
APLN,1,0.63,0.44,active
TPX2,1,-0.11,2.64,inactive
HIVEP1,1,0.98,1.13,inactive
CELF5,1,-0.01,0.72,inactive
UBE2G2,1,0.37,1.54,inactive
H3C1,1,0.23,1.22,inactive
MAG,1,0.43,1.23,inactive
LINC02913,1,0.36,1.17,inactive
CREB3L1,1,0.32,0.83,inactive
ZNF396,1,0.88,0.42,inactive
LCT,1,0.65,0.99,inactive
MME,1,0.7,1.16,inactive
SLC5A11,1,0.93,0.86,inactive
CXorf66,1,0.62,0.66,inactive
TGFBR2,1,0.46,0.76,inactive
BIVM,1,0.83,0.6,inactive
POLR2D,1,0.23,1.03,inactive
TACO1,1,0.58,0.9,inactive
COL6A5,1,1.15,0.71,inactive
LMNB2,1,1.12,1.33,inactive
POPDC3,1,0.25,1.4,inactive

Next part (3 carried over from the part before).
gene,reagent,cell gain with vemurafenib,lactate per cell with vemurafenib,outcome
COL6A5,1,1.15,0.71,inactive
LMNB2,1,1.12,1.33,inactive
POPDC3,1,0.25,1.4,inactive
NOL4,1,0.73,0.5,inactive
ZNF654,1,0.39,0.99,inactive
ABCC3,1,0.53,1.08,inactive
SELP,1,0.58,0.92,inactive
RPE,1,0.83,0.98,inactive
CFAP141,1,0.57,0.54,inactive
ERCC1,1,0.6,1.34,inactive
SDK1,1,1.56,0.88,inactive
NCK2,1,0.67,0.98,inactive
ESPNL,1,0.46,1.11,inactive
ELOC,1,0.44,1.52,inactive
SGTB,1,0.57,1.16,inactive
RNF212,1,0.58,1.17,inactive
GAB2,1,0.56,0.74,inactive
TAB2,1,0.32,1.08,inactive
ESRRG,1,1,0.9,inactive
GMFB,1,0.81,1.5,inactive
RREB1,1,0.66,1.27,inactive
IGF2BP2-AS1,1,0.65,1.46,inactive
GOLM1,1,0.38,0.64,inactive
HPS1,1,0.94,1.25,inactive
DYNLL2,1,0.74,0.7,inactive
AVPR1A,1,0.55,0.61,inactive
CCL4L1,1,0.41,1.56,inactive
PSMD7,1,-0.13,2.45,inactive
SEMA4C,1,0.82,0.66,inactive
ZFHX3,1,0.79,1.07,inactive
C10orf67,1,0.69,1.19,inactive
C21orf58,1,0.26,2.48,inactive
RPL4,1,-0.06,2.83,inactive
HTR1F,1,0.65,0.86,inactive
ELP3,1,0.75,0.92,inactive
UBA6,1,1.02,0.84,inactive
DYNC2I1,1,0.85,1.1,inactive
AIRE,1,0.6,1.23,inactive
OSMR,1,0.59,0.88,inactive
PRDM9,1,0.5,1.02,inactive
STX5,1,0.88,0.84,inactive
GPR176,1,0.68,0.88,inactive
RPGR,1,0.73,0.64,inactive
TRABD,1,1.18,0.68,inactive
ADCY3,1,0.88,1.04,inactive
ANXA1,1,0.81,0.86,inactive
PHF20L1,1,0.92,0.85,inactive
CPNE3,1,0.69,0.66,inactive
PARP8,1,0.95,0.62,inactive
LRTOMT,1,0.2,1.13,inactive
CYP11A1,1,0.84,0.91,inactive
NAP1L4,1,0.21,0.48,inactive
LEFTY1,1,0.76,0.57,inactive
BDKRB2,1,0.84,0.98,inactive
COL4A1,1,0.93,0.62,inactive
TLK2,1,0.37,1.25,inactive
UGGT1,1,0.54,1.1,inactive
SLC68A1,1,0.46,0.66,inactive
EML2,1,0.84,1.08,inactive
CD5,1,0.45,0.73,inactive
RXRG,1,-0.13,4.01,inactive
F13A1,1,0.91,0.62,inactive
MUS81,1,0.69,0.65,inactive
PTGIS,1,0.81,0.76,inactive
SERPINH1,1,0.88,0.81,inactive
NLRP6,1,0.46,1.46,inactive
RHOQ,1,0.48,1.23,inactive
ZGRF1,1,0.23,1.64,inactive
ZGRF1,2,0.31,1.14,inactive
